The source of these data is article PMC3480639.

Amino acid sequences for entries named in this document (tags omitted).
UniProt Q14974: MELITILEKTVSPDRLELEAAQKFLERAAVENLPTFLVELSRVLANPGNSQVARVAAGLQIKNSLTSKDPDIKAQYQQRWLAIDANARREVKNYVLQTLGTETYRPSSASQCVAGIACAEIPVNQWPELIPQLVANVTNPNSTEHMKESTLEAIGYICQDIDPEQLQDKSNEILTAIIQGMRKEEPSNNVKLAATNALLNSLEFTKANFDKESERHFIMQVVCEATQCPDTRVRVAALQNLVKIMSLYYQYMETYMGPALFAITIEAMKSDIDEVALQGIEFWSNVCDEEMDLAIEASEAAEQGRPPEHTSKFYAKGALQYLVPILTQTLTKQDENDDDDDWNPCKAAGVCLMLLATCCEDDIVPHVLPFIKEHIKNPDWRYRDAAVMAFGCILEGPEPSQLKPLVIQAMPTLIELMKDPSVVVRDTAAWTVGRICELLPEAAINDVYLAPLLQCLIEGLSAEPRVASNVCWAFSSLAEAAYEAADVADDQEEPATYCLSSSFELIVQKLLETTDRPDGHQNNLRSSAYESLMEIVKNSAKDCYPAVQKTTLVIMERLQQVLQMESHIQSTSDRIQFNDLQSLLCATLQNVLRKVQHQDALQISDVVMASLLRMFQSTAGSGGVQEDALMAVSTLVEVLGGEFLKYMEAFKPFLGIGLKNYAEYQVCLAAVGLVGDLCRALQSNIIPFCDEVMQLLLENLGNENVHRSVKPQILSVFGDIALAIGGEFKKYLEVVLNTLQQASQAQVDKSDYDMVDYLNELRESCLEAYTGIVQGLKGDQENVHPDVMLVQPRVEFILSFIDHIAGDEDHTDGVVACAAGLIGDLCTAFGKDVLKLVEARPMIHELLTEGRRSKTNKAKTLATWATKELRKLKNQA

The target of assay [1] is His-tagged Importin β (UniProt Q14974). In words: pull-down; data not shown: in vitro binding of bacterially expressed full-length Repo-Man to His-Importin β.
The next assay addresses T1, dsRed-BAF (UniProt O75531).
T1 sequence: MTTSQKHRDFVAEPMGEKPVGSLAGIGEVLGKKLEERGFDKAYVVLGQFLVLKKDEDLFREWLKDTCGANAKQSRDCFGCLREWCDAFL
In words: FRET or BRET; FLIM-FRET in cells in interphase; GFP fusion as donor, mRFP or dsRed fusion as acceptor; multiphoton excitation at 890 nm; at least 20 cells per condition.

Assay [2] concerns the target His-tagged Importin β (UniProt Q14974). In words: pull-down; His-Importin β on TALON (Ni) beads incubated with GST-Repo-Man^1–135 for 1 hr at 4°C in 20 mM HEPES pH 7.4, 110 mM K acetate, 2 mM Mg acetate, 0.2 mM DTT; SDS-PAGE, Coomassie (and autoradiograph for the phosphorylated protein); both purified.

Results are given in words; binding and its absence hold for the method and conditions named. For part of these data: Binding seen in cells or lysates may run through a third protein. Some entries that bind do so weakly or less than the wild type. For part of these data: Where a sequence is shown, tags or fusion partners need not be part of it.

B1: full-length Repo-Man expressed in bacteria (protein, UniProt Q69YH5 1-1023)
chain: MDANSKDKPPETKESAMNNAGNASFILGTGKIVTPQKHAELPPNPCTPDTFKSPLNFSTVTVEQLGITPESFVRNSAGKSSSYLKKCRRRSAVGARGSPETNHLIRFIARQQNIKNARKSPLAQDSPSQGSPALYRNVNTLRERISAFQSAFHSIKENEKMTGCLEFSEAGKESEMTDLTRKEGLSACQQSGFPAVLSSKRRRISYQRDSDENLTDAEGKVIGLQIFNIDTDRACAVETSVDLSEISSKLGSTQSGFLVEESLPLSELTETSNALKVADCVVGKGSSDAVSPDTFTAEVSSDAVPDVRSPATPACRRDLPTPKTFVLRSVLKKPSVKMCLESLQEHCNNLYDDDGTHPSLISNLPNCCKEKEAEDEENFEAPAFLNMRKRKRVTFGEDLSPEVFDESLPANTPLRKGGTPVCKKDFSGLSSLLLEQSPVPEPLPQPDFDDKGENLENIEPLQVSFAVLSSPNKSSISETLSGTDTFSSSNNHEKISSPKVGRITRTSNRRNQLVSVVEESVCNLLNTEVQPCKEKKINRRKSQETKCTKRALPKKSQVLKSCRKKKGKGKKSVQKSLYGERDIASKKPLLSPIPELPEVPEMTPSIPSIRRLGSGYFSSNGKLEEVKTPKNPVKRKDLLRHDPDLHMHQGYDKYDVSEFCSYIKSSSSLGNATSDEDPNTNIMNINENKNIPKAKNKSESENEPKAGTDSPVSCASVTEERVASDSPKPALTLQQGQEFSAGGQNAENLCQFFKISPDLNIKCERKDDFLGAAEGKLQCNRLMPNSQKDCHCLGDVLIENTKESKSQSEDLGRKPMESSSVVSCRDRKDRRRSMCYSDGRSLHLEKNGNHTPSSSVGSSVEISLENSELFKDLSDAIEQTFQRRNSETKVRRSTRLQKDLENEGLVWISLPLPSTSQKAKRRTICTFDSSGFESMSPIKETVSSRQKPQMAPPVSDPENSQGPAAGSSDEPGKRRKSFCISTLANTKATSQFKGYRRRSSLNGKGESSLTALERIEHNGERKQ
B1: the binding entry with His-tagged Importin β [1] is “binds”.

B2: GFP:Repo-Man (protein, UniProt Q69YH5 1-1023)
chain: B1 chain
For B2, the binding result with dsRed-BAF is on record as “no binding”.

B3: GST-Repo-Man^1–135 (domain or fragment, UniProt Q69YH5 1-135)
chain: MDANSKDKPPETKESAMNNAGNASFILGTGKIVTPQKHAELPPNPCTPDTFKSPLNFSTVTVEQLGITPESFVRNSAGKSSSYLKKCRRRSAVGARGSPETNHLIRFIARQQNIKNARKSPLAQDSPSQGSPALY
Take B3: in the assay with His-tagged Importin β [2], the binding result is recorded as “binds”.
